Results are given in words; binding and its absence hold for the method and conditions named. Some binding calls cover weakened binding; strength is not graded here. Where a sequence is shown, tags or fusion partners need not be part of it.
Columns and labels:
[1] = biological target: T1, SonM-R67A, untagged, co-expressed with his6-SonA (Shewanella oneidensis MR-1) (UniProt Q8EGW3); test: crystal structure; co-purified SonM (wt or active site mutant)-SonA complexes, with or without SAH; 20% PEG 3350, 240 mM sodium malonate pH 7 (refined pH 5.5-7), 292 K; both purified
T1 sequence: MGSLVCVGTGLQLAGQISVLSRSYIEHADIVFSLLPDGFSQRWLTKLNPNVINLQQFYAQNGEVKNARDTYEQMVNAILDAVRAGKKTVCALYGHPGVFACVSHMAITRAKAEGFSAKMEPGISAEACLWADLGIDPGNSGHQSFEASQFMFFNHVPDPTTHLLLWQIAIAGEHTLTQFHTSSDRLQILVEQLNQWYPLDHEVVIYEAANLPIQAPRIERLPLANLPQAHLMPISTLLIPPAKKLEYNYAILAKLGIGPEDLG

[2] = biological target: unmethylated SonA precursor peptide (SonA-0Me), his6-tagged (Shewanella oneidensis MR-1) (UniProt Q8EGW2); test: SEC; oligomeric state of individually expressed and purified SonM and SonA (Supplementary Fig. 6); Superdex 200 in 50 mM HEPES pH 8, 300 mM NaCl, 10% glycerol is the sizing step of the purification; both purified
[3] = biological target: T2, SonM α-N-methyltransferase (SO1478), wild type, untagged, co-expressed with his6-SonA or SonA-BBD (Shewanella oneidensis MR-1) (UniProt Q8EGW3); test: crystal structure; co-purified SonM-SonA-BBD complex, with SAM in one heterodimer; 100 mM Bis-Tris pH 5.5, 100 mM ammonium acetate, PEG 10,000, 292 K; both purified
T2 sequence: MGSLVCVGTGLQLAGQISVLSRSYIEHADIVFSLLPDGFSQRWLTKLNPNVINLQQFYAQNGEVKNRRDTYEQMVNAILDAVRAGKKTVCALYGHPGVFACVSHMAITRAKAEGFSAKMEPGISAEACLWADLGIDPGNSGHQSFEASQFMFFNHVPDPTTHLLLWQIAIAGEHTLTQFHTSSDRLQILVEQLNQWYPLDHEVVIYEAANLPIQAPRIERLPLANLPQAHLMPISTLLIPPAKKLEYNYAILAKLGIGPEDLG

| Binder | binding [1] | binding [2] | binding [3] |
| --- | --- | --- | --- |
| unmethylated SonA precursor peptide (SonA-0Me), his6-tagged (natural protein, Shewanella oneidensis MR-1, UniProt Q8EGW2 1-71, looked up) MSGLSDFFTQLGQDAQLMEDYKQNPEAVMRAHGLTDEQINAVMTGDMEKLKTLSGDSSYQSYLVISHGNGD | binds | no binding | – |
| SonA borosin binding domain only construct (SonA-BBD; 1-55) (domain or fragment, Shewanella oneidensis MR-1, UniProt Q8EGW2 1-55, looked up, SonA (SO1479) of Shewanella oneidensis MR-1, helical bundle composed of the first 55 amino acids (1-55); The his6 tag is stated for the individual construct; for the co-expression construct it is surmised from the template plasmid pMF1181; also called BBD-SonA; his6-SonA-BBD) MSGLSDFFTQLGQDAQLMEDYKQNPEAVMRAHGLTDEQINAVMTGDMEKLKTLSG | – | – | binds |

From paper PMC8429565, “Conformational rearrangements enable iterative backbone N-methylation in RiPP biosynthesis” (Nature Communications, 2021)
